At least one peptide structure holds a part that was inferred or is arguable (an end, a ring closure or a residue). Bridge positions count the residues as written; N and C are the ends. Ends that are not written are not given here. * marks the point of attachment. DOTA = O=C(O)CN1CCN(CC(=O)O)CCN(CC(=O)*)CCN(CC(=O)O)CC1; PEG4 = NCCOCCOCCOCCOCCC(=O)O
Test system: HT1376 urothelial cancer cells
Assay: In vitro cell cytotoxicity assay of actinium-225 radioconjugates (CellTiter-Glo)
Type: cell-based
Conditions: compound radiolabeled with 225Ac, 24 hours treatment, 4-5 days regrowth, cell viability
Method: Cytotoxicity to actinium-225 radioconjugates was assessed in HT1376 urothelial cancer cells. Cells were seeded in 96-well plates at densities of 250 to 1000 cells per well two days prior to treatment. On the day of treatment actinium-225 radioconjugates were diluted in culture medium to concentrations ranging from 0.0001 to 100 uCi/mL and treatment solutions were incubated with cells for 24 hours. At the end of the treatment period, the treatment solution was removed, and fresh culture medium was replenished for the regrowth period of the assay that lasted 4-5 days. At the end of the regrowth period the culture medium was removed and viability was assessed by CellTiter-Glo (Promega, Waltham MA) luminescent assay and the plates were read on a Perkin Elmer Enspire multimode plate reader. Data were normalized to treatment controls and plotted as non-linear sigmoidal dose response curves to determine the effective concentration for 50% reduction in cell viability.

Row | Substance | EC50 (microcurie/milliliter) for Ac-225 radioconjugates [microcurie/milliliter]
1 | {DOTA-PEG4}-CEYDEEFFTALKRLRGGDICYYIQAKFQYLPKLCIEEILDNLGCS (disulfide 1-34, 20-44) [Compound C117] | 0.014
2 | {DOTA-PEG4}-CEYDEQFFTALKALRGGDICYYIQASFNYLPDLCIEEILDNLGCS (disulfide 1-34, 20-44) [Compound C113] | 0.042

Source: patent US20260034253A1, “NECTIN-4 MINIPROTEIN CONJUGATES” (Aktis Oncology, Inc., priority 2022, published 2026)
